## Results from one PubChem assay

Data taken from PubChem BioAssay AID504749, deposited by NCATS (2011).

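Malaria parasite (P. falciparum) lines kept in red blood cells; parasite DNA is measured by SYBR Green fluorescence after lysis, 72 h after compound addition.
Each compound was titrated across a series from about 0.000037 to 29 µM.
The number is the fitted AC50, the concentration giving a half-maximal change in signal; a lower value means higher potency, whether the curve shows a decrease or an increase.
Calls follow the curve class and fit quality: every row here is inconclusive, covering signal-raising curves and weak, poorly fitted, partial or highest-dose-only inhibition curves.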

Values are in nM.
Every entry below has the call inconclusive.
These entries are mostly ones the record files as inconclusive; other results of the assay are not listed here.
Potencies fitted to partial, single-point or poorly fitting curves are rough.

Compound | setting | Potency (nM) | curve
CN(C)CCCOc1nn(Cc2ccccc2)c2ccccc12 | Dd2 | 3548 | inhibitor, single point
CN(C)CCCOc1nn(Cc2ccccc2)c2ccccc12 | ATS189 | 3162 | inhibitor, single point
CN(C)CCCOc1nn(Cc2ccccc2)c2ccccc12 | JCK | 3981 | inhibitor, single point
CN(C)CCCOc1nn(Cc2ccccc2)c2ccccc12 | P93_24 | 2512 | inhibitor, partial curve, poor fit
COC(=O)C(c1ccccc1Cl)N1CCc2sccc2C1 (stereo not shown) | DFO2036 | 11220 | inhibitor, single point
COC(=O)C(c1ccccc1Cl)N1CCc2sccc2C1 (stereo not shown) | GB4 | 9528 | inhibitor, partial curve
COC(=O)C(c1ccccc1Cl)N1CCc2sccc2C1 (stereo not shown) | CP260 | 10000 | inhibitor, single point
COC(=O)C(c1ccccc1Cl)N1CCc2sccc2C1 (stereo not shown) | P94_40 | 17782 | inhibitor, single point
COC(=O)C(c1ccccc1Cl)N1CCc2sccc2C1 (stereo not shown) | CP268 | 11995 | inhibitor, single point
COC(=O)C(c1ccccc1Cl)N1CCc2sccc2C1 (stereo not shown) | TAB165 | 11220 | inhibitor, single point
COC(=O)C(c1ccccc1Cl)N1CCc2sccc2C1 (stereo not shown) | SC27B | 11220 | inhibitor, single point
COC(=O)C(c1ccccc1Cl)N1CCc2sccc2C1 (stereo not shown) | CP266 | 19011 | inhibitor, single point
COC(=O)C(c1ccccc1Cl)N1CCc2sccc2C1 (stereo not shown) | CP286 | 10000 | inhibitor, single point
COC(=O)C(c1ccccc1Cl)N1CCc2sccc2C1 (stereo not shown) | CP315 | 19011 | inhibitor, partial curve, poor fit
COC(=O)C(c1ccccc1Cl)N1CCc2sccc2C1 (stereo not shown) | N140 | 17782 | inhibitor, single point
COC(=O)C(c1ccccc1Cl)N1CCc2sccc2C1 (stereo not shown) | HB3 | 12589 | inhibitor, partial curve
COC(=O)C(c1ccccc1Cl)N1CCc2sccc2C1 (stereo not shown) | CP329 | 15101 | inhibitor, single point
COC(=O)C(c1ccccc1Cl)N1CCc2sccc2C1 (stereo not shown) | CP325 | 15101 | inhibitor, partial curve, poor fit
COC(=O)C(c1ccccc1Cl)N1CCc2sccc2C1 (stereo not shown) | CP305 | 11995 | inhibitor, single point
COC(=O)C(c1ccccc1Cl)N1CCc2sccc2C1 (stereo not shown) | CP262 | 4776 | inhibitor, partial curve
COC(=O)C(c1ccccc1Cl)N1CCc2sccc2C1 (stereo not shown) | PC26 | 19011 | inhibitor, single point
COC(=O)C(c1ccccc1Cl)N1CCc2sccc2C1 (stereo not shown) | ICS | 12589 | inhibitor, single point
COC(=O)C(c1ccccc1Cl)N1CCc2sccc2C1 (stereo not shown) | CP265 | 10000 | inhibitor, single point
COC(=O)C(c1ccccc1Cl)N1CCc2sccc2C1 (stereo not shown) | CP291 | 19011 | inhibitor, single point
COC(=O)C(c1ccccc1Cl)N1CCc2sccc2C1 (stereo not shown) | PAD | 12589 | inhibitor, single point
COC(=O)C(c1ccccc1Cl)N1CCc2sccc2C1 (stereo not shown) | W2 | 13459 | inhibitor, single point
COC(=O)C(c1ccccc1Cl)N1CCc2sccc2C1 (stereo not shown) | TAB109 | 11220 | inhibitor, single point
COC(=O)C(c1ccccc1Cl)N1CCc2sccc2C1 (stereo not shown) | ECU | 12589 | inhibitor, single point
COC(=O)C(c1ccccc1Cl)N1CCc2sccc2C1 (stereo not shown) | P93_24 | 8912 | inhibitor, single point
COC(=O)C(c1ccccc1Cl)N1CCc2sccc2C1 (stereo not shown) | CP269 | 15101 | inhibitor, single point
COC(=O)C(c1ccccc1Cl)N1CCc2sccc2C1 (stereo not shown) | TAB113 | 12589 | inhibitor, single point
COC(=O)C(c1ccccc1Cl)N1CCc2sccc2C1 (stereo not shown) | CP335 | 11995 | inhibitor, single point
O=C1OC(c2ccc(O)cc2)(c2ccc(O)cc2)c2ccccc21 | P93_24 | 3548 | inhibitor, single point
O=C1OC(c2ccc(O)cc2)(c2ccc(O)cc2)c2ccccc21 | ATS189 | 5623 | inhibitor, partial curve, poor fit
O=C1OC(c2ccc(O)cc2)(c2ccc(O)cc2)c2ccccc21 | ECU | 17782 | inhibitor, single point
O=C1OC(c2ccc(O)cc2)(c2ccc(O)cc2)c2ccccc21 | CP192 | 19011 | inhibitor, single point
O=C1OC(c2ccc(O)cc2)(c2ccc(O)cc2)c2ccccc21 | DIV30 | 0.5 | inhibitor
O=C1OC(c2ccc(O)cc2)(c2ccc(O)cc2)c2ccccc21 | N140 | 17782 | inhibitor, single point
CC(C)(C)c1ccc(C(=O)CCCN2CCC(OC(c3ccccc3)c3ccccc3)CC2)cc1 | CP268 | 16944 | inhibitor, single point
CC(C)(C)c1ccc(C(=O)CCCN2CCC(OC(c3ccccc3)c3ccccc3)CC2)cc1 | CP185 | 10000 | inhibitor, single point
CC(C)(C)c1ccc(C(=O)CCCN2CCC(OC(c3ccccc3)c3ccccc3)CC2)cc1 | CP297 | 10690 | inhibitor, partial curve
CC(C)(C)c1ccc(C(=O)CCCN2CCC(OC(c3ccccc3)c3ccccc3)CC2)cc1 | CP329 | 6746 | inhibitor, partial curve
CC(C)(C)c1ccc(C(=O)CCCN2CCC(OC(c3ccccc3)c3ccccc3)CC2)cc1 | SC27B | 11220 | inhibitor, single point
CC(C)(C)c1ccc(C(=O)CCCN2CCC(OC(c3ccccc3)c3ccccc3)CC2)cc1 | ECU | 17782 | inhibitor, single point
CC(C)(C)c1ccc(C(=O)CCCN2CCC(OC(c3ccccc3)c3ccccc3)CC2)cc1 | CP325 | 15101 | inhibitor, single point
CC(C)(C)c1ccc(C(=O)CCCN2CCC(OC(c3ccccc3)c3ccccc3)CC2)cc1 | PC15 | 10000 | inhibitor, single point
CC(C)(C)c1ccc(C(=O)CCCN2CCC(OC(c3ccccc3)c3ccccc3)CC2)cc1 | CP211 | 6746 | inhibitor, partial curve
CC(C)(C)c1ccc(C(=O)CCCN2CCC(OC(c3ccccc3)c3ccccc3)CC2)cc1 | CP256 | 17782 | inhibitor, single point
CC(C)(C)c1ccc(C(=O)CCCN2CCC(OC(c3ccccc3)c3ccccc3)CC2)cc1 | PC26 | 4776 | inhibitor, partial curve
CC(C)(C)c1ccc(C(=O)CCCN2CCC(OC(c3ccccc3)c3ccccc3)CC2)cc1 | PAD | 14125 | inhibitor, single point
CC(C)(C)c1ccc(C(=O)CCCN2CCC(OC(c3ccccc3)c3ccccc3)CC2)cc1 | CP215 | 11995 | inhibitor, partial curve
CC(C)(C)c1ccc(C(=O)CCCN2CCC(OC(c3ccccc3)c3ccccc3)CC2)cc1 | CP191 | 11220 | inhibitor, single point

The first 4 entries again:

- CN(C)CCCOc1nn(Cc2ccccc2)c2ccccc12 [Dd2] | Potency 3548 nM (inhibitor, single point)
- CN(C)CCCOc1nn(Cc2ccccc2)c2ccccc12 [ATS189] | Potency 3162 nM (inhibitor, single point)
- CN(C)CCCOc1nn(Cc2ccccc2)c2ccccc12 [JCK] | Potency 3981 nM (inhibitor, single point)
- CN(C)CCCOc1nn(Cc2ccccc2)c2ccccc12 [P93_24] | Potency 2512 nM (inhibitor, partial curve, poor fit)